# Among all 78,000 compounds or so, about 1,800 (2.3%) were called active. This list was built around the results that the source calls inconclusive (neither active nor inactive); the mix of calls is not that of the screen. Rule as the data show it: active = inhibition above about 30%; inconclusive = mostly about 10% to 28%; inactive = weaker than that.
# The chains behind the UniProt entries cited, without tags or fusion partners. Where a name states a change or a piece, a line headed by the entry shows the natural chain unless it says otherwise.
# UniProt Q01638: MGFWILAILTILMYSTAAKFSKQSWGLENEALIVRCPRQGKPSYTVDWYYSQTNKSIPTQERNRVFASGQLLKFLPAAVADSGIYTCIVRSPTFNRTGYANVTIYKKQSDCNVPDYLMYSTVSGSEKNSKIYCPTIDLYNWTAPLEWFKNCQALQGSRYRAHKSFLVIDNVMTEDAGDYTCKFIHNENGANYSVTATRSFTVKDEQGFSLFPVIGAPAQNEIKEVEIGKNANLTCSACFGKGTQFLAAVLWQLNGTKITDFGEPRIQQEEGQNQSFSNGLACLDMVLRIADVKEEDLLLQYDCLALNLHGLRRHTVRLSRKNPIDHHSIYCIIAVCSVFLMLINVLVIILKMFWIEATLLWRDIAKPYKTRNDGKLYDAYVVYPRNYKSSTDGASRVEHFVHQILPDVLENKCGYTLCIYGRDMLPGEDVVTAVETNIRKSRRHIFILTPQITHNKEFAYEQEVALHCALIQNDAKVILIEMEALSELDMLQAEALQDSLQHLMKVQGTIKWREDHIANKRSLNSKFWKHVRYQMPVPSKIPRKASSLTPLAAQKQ
# Target: Interleukin-1 receptor-like 1 (Homo sapiens) (UniProt Q01638)
# Test: blocks human ST2 binding to IL-33, primary screen, biochemical, AlphaLISA (AID 1259354)
# Details: AlphaLISA ST2-Fc/biotin-IL-33 interaction, 1 h; at 17 µM, active compounds read high
row,SMILES,inhibition
1,COc1cccc(OC)c1OCC(O)CN1CCN(c2ccccc2F)CC1 (stereo unspecified),inconclusive: 20%
2,O=c1[nH]c2ccccc2cc1-c1cc(NCc2ccccn2)nc2[nH]ccc12,inconclusive: 13%
3,CCC(=O)N1CCc2cc(Br)cc(S(=O)(=O)NCc3ccc(C)o3)c21,inconclusive: 14%
4,N#Cc1cccc(-c2ccnc(N[C@H]3CO[C@H]4[C@@H]3OC[C@@H]4NC(=O)c3ccccc3)n2)c1,inconclusive: 12%
5,Cc1ccc(-c2cc(O)c3c(c2)CN(C(=O)CCCn2cncn2)CCO3)cc1,inconclusive: 16%
6,COc1ccc(O)c(C=Nc2cccc(Cl)c2)c1,inconclusive: 15%
7,CC1=CC(C)(C)N(C(=O)C(C)N2C(=O)c3ccccc3C2=O)c2c(C)cc(C)cc21 (stereo unspecified),inconclusive: 10%
8,CCOC(=O)c1nn(Cc2ccc(OC)cc2)c2c1CN(C(=O)C1CCCO1)CC2 (stereo unspecified),inactive
9,Cc1cnc2c(C(=O)NC(c3ccncc3)c3ccccc3C)cnn2c1 (stereo unspecified),inconclusive: 12%
10,CCN1C(=O)CC(c2ccccc2)Sc2ccccc21 (stereo unspecified),inactive
11,CCOc1ccc(NC(=O)CC(=O)N2CCC3(CCCN(C)C3=O)C2)cc1 (stereo unspecified),inconclusive: 15%
12,CN1CCC(Cc2noc(-c3cccc4c3OCC4)n2)CC1,inconclusive: 15%
13,Cc1ccc(C(=O)NCCCN2CCOCC2)c(Cl)c1,inconclusive: 10%
14,O=C(Nc1ccc(N2CCCC2)cc1)c1cc2ccccc2o1,inconclusive: 15%
15,COc1ccc(NC(=O)CN2C(=O)C(=O)c3ccccc32)cc1,inconclusive: 24%
16,OCc1ccc(CN2CCC(c3cc(-c4ccccc4Cl)n[nH]3)CC2)o1,inconclusive: 11%
17,O=C(c1cn[nH]c1)N(CC1CCN(C2Cc3ccccc3C2)CC1)CC1CCCO1 (stereo unspecified),inconclusive: 15%
18,COc1ccc(C)cc1NC(=O)CNC(=O)C1(C)CCCO1 (stereo unspecified),inconclusive: 10%
19,Cc1ccnc(CC(C)N(C)C(=O)c2cc(-c3cnn(C)c3)nc3c(C)cccc23)c1 (stereo unspecified),inactive
20,O=C(Nc1ccc(Oc2ccc(Cl)cc2)cc1)c1cnc2n(c1=O)CCS2,inactive
21,CCCn1ncc(C(=O)N2CC[C@@H](c3ccc4c(c3)OCO4)[C@H](O)C2)c1C,inactive
22,CC(C)c1ccc(S(=O)(=O)NC(C)(C)C)cc1,inactive
23,Cc1c([N+](=O)[O-])c2ccc(O)cc2n1-c1ccccc1,inconclusive: 20%

# Arranged by heavy-atom count (falling): 5 of the compounds above.
row,SMILES,inhibition
19,Cc1ccnc(CC(C)N(C)C(=O)c2cc(-c3cnn(C)c3)nc3c(C)cccc23)c1 (stereo unspecified),inactive
11,CCOc1ccc(NC(=O)CC(=O)N2CCC3(CCCN(C)C3=O)C2)cc1 (stereo unspecified),inconclusive: 15%
16,OCc1ccc(CN2CCC(c3cc(-c4ccccc4Cl)n[nH]3)CC2)o1,inconclusive: 11%
3,CCC(=O)N1CCc2cc(Br)cc(S(=O)(=O)NCc3ccc(C)o3)c21,inconclusive: 14%
14,O=C(Nc1ccc(N2CCCC2)cc1)c1cc2ccccc2o1,inconclusive: 15%

# Remaining list, next part

row,SMILES,inhibition
1,COCCN1CCCC2(CCN(Cc3ccc(Oc4ncccn4)cc3)C2)C1 (stereo unspecified),inactive
2,CC(=O)Nc1ccc(NC(=O)c2cccc(Br)c2)cc1,inactive
3,COc1ccc(C2=NN(S(=O)(=O)c3ccccc3)C(c3ccccc3F)C2)cc1OC (stereo unspecified),inconclusive: 19%
4,O=C(CSc1nc2ncccc2[nH]1)Nc1ccc(F)cc1,inconclusive: 17%
5,COc1ccc(CC(=O)NC2CC(=O)N(c3cccc(F)c3)C2)cc1 (stereo unspecified),inconclusive: 14%
6,COc1cccc(NS(=O)(=O)c2ccc3[nH]cc(C(=O)NC4CCCCC4C)c(=O)c3c2)c1 (stereo unspecified),inconclusive: 18%
7,O=C(O)CCCCCCCC(=O)O,inconclusive: 10%
8,CCc1ccc(-c2nccn2CCc2nc(C)c3c(n2)CCC3)o1,inactive
9,CC(C)C(NS(=O)(=O)c1cccs1)C(=O)NC1CCCc2ccccc21 (stereo unspecified),inconclusive: 11%
10,O=C(Nc1ccccc1Br)c1cccc([N+](=O)[O-])c1,inactive
11,CCC1=C(c2ccc(OC)cc2)S(=O)(=O)N(CC(=O)Nc2ccc(C)c(C)c2)C1=O,inconclusive: 10%
12,Fc1ccc(C2(c3noc(-c4n[nH]c5c4CCC5)n3)CCOC2)cc1 (stereo unspecified),inconclusive: 17%
13,O=[N+]([O-])c1ccccc1C=Nc1ccc2oc(-c3cccc(F)c3)nc2c1,inconclusive: 14%
14,CC(C)(C)c1ccc(S(=O)(=O)N(CCCN2CCOCC2)Cc2cccs2)cc1,inconclusive: 13%
15,OC(CN1CCOCC1)Cn1c2ccccc2c2ccccc21 (stereo unspecified),inconclusive: 12%
16,Cc1cc(C)c(C(=O)N2CCc3c(cnc(C)c3CNC(=O)/C=C/c3ccccc3)C2)[nH]1,inactive
17,Cc1cnc(CN(C)C(=O)C23CC4C[C@@](C)(C2)C[C@](C)(C4)C3)[nH]1,inactive
18,Cc1nc(C)c2c(n1)OC(CN1CCc3[nH]nc(-c4ccccc4F)c3C1)C2 (stereo unspecified),inconclusive: 16%
19,Cc1c(N=Cc2cc(I)c(O)c([N+](=O)[O-])c2)c(=O)n(-c2ccccc2)n1C,inconclusive: 10%
20,COC(=O)C1=C(N)OC2=C(C(=O)CC(c3ccccc3)C2)C1c1cc(OC)c(OC)c(OC)c1 (stereo unspecified),inactive
21,O=C(Nc1ccccc1)C1CC(=O)N(Cc2ccc3c(c2)OCO3)C(=Nc2ccc(F)cc2)S1 (stereo unspecified),inactive
22,O=C(O)C1CN(C(=O)c2cccc(OCC(F)(F)F)c2)CCN1 (stereo unspecified),inconclusive: 13%
23,CCC1(c2ccccc2)NCC(c2ccc([N+](=O)[O-])cc2)O1 (stereo unspecified),inactive

row,SMILES,inhibition
1,Cc1ccsc1-c1ncnn1-c1sc2c(c1C#N)CCCC2,inconclusive: 18%
2,COc1ccccc1NC(=O)c1ccco1,inactive
3,Cc1nsc(NC(=O)N2CCN(c3ccccc3)CC2C)n1 (stereo unspecified),inconclusive: 12%
4,O=C(Nc1cccc([N+](=O)[O-])c1)c1ccc2nc(N3C(=O)CCC3=O)sc2c1,inconclusive: 14%
5,CCOc1ccccc1N1CCN(S(=O)(=O)c2ccc(OCC)c3ccccc23)CC1,inconclusive: 15%
6,COC(=O)[C@H]1C[C@@H](O)CCN1S(=O)(=O)c1cc(C)c(Cl)cc1C,inconclusive: 12%
7,CC1=C(C(=O)Nc2ccc(C)cc2C)C(c2ccccc2OC(F)F)n2nnnc2N1 (stereo unspecified),inactive
8,C=CCN(CC=C)S(=O)(=O)c1ccc(C(=O)Nc2nnc(-c3ccccc3Cl)o2)cc1,inconclusive: 11%
9,Cc1ccc(C)c(Oc2cc(NC(=O)CCCn3nc(C)c([N+](=O)[O-])c3C)cc([N+](=O)[O-])c2)c1,inconclusive: 12%
10,COc1cccnc1-c1cc(O)cc(CCC2CCCCN2)c1 (stereo unspecified),inconclusive: 11%
11,O=C1CC(C(=O)Nc2cccc(Cl)c2)SC(=Nc2ccc(Cl)cc2)N1 (stereo unspecified),inactive
12,CSc1ccc(-c2ncnn2-c2cccc(Cl)c2C)cc1,inconclusive: 29%
13,O=c1c2oc3ccccc3c2ncn1Cc1cccc(F)c1,inconclusive: 10%
14,CCc1nc(C)c(C(=O)NCc2cc3cc(OC)ccc3[nH]2)o1,inactive
15,CN1C[C@@H]2CC[C@H](CC1=O)N2Cc1ccc(Sc2nncn2C)o1,inconclusive: 18%
16,C[C@@]12CO[C@@H](Cc3ccccc3)O[C@@H]1CC[C@]1(C)C2CC[C@@H](O)[C@H]1CC(=O)NCc1ccccc1 (stereo partly specified),inconclusive: 19%
17,COCCN[C@H]1[C@@H]2OC[C@@H](O2)[C@@H](NC(=O)Nc2ccc(F)cc2)[C@@H]1O,inconclusive: 19%
18,Cc1cc(C(=O)N2CCc3c(nc(N)[nH]c3=O)C2)sc1-c1ccccc1,inactive
19,Cc1ccc(-c2cn(-c3ccccc3)c(S(C)(=O)=O)n2)cc1,inconclusive: 18%
20,O=C(CN1C(=O)/C(=C/c2ccccc2F)Sc2ccccc21)NC1CCCCC1,inconclusive: 23%
21,c1coc(-c2nc3sc4c(N5CCOCC5)ncnc4c3c3c2CCCC3)c1,inconclusive: 11%
22,O=[N+]([O-])c1ccc(CN2CCN(c3ccccc3Cl)CC2)o1,inconclusive: 15%
23,COc1ccc(N(CC(=O)N2CCC(Cc3ccccc3)CC2)S(C)(=O)=O)cc1,inconclusive: 10%

# Entries above that have a COOH group:
row,SMILES,inhibition
7,O=C(O)CCCCCCCC(=O)O,inconclusive: 10%
22,O=C(O)C1CN(C(=O)c2cccc(OCC(F)(F)F)c2)CCN1 (stereo unspecified),inconclusive: 13%

# Following part:

row,SMILES,inhibition
1,O=C(c1coc(CN2CCN(C/C=C/c3ccccc3)CC2)n1)N1C[C@H]2CC[C@@H]1C2,inactive
2,C=CCn1c(-c2ccccc2)csc1=Nc1cccc([N+](=O)[O-])c1,active: 59%
3,COc1ccc(-n2c(=O)c3ccccc3n(Cc3ccccc3C#N)c2=O)c(OC)c1,inactive
4,Cc1nc2c(C(=O)N3CCC(c4[nH]ncc4-c4ccccc4)CC3)cccc2[nH]1,inconclusive: 12%
5,CCCn1cnc2cc(NCc3ccc(OC)c(OC)c3)ccc21,inconclusive: 14%
6,Cc1cc(C)c(S(=O)(=O)N=C2C=CC(=O)c3ccccc32)c(C)c1,active: 39%
7,Cc1cccc(OCC(O)Cn2c(C)nc3ccccc32)c1 (stereo unspecified),inconclusive: 12%
8,COc1cc(C(=O)Nc2nc3c(s2)CCCC3)cc(OC)c1OC,inactive
9,Cc1onc(-c2ccccc2)c1C(=O)Nc1sc2c(c1C#N)CCCC2,inactive
10,CSCC(=O)N[C@H]1CCN2C(=O)c3ccc(Cl)cc3NC(=O)[C@@H]2C1,inconclusive: 16%
11,CC1CCCN(CCCNS(=O)(=O)c2cccc3cccnc23)C1 (stereo unspecified),inactive
12,CCCCOCC(O)Cn1c(Cc2ccccc2)nc2ccccc21 (stereo unspecified),inconclusive: 12%
13,Cc1ccc2[nH]c(Sc3nc4c(c(=O)n(C)c(=O)n4C)n3C)nc2c1C,inactive
14,CCOc1ccc2nc(N3CCCN(C/C(C)=C/c4ccco4)CC3)nc(C)c2c1,inconclusive: 23%
15,c1ccc(CCn2c3ccccc3c3nnc(SCCN4CCOCC4)nc32)cc1,inactive
16,O=C(NCc1ccccc1)c1n[nH]nc1-c1ccccc1O,inconclusive: 12%
17,O=C(C1CC1)N1CCc2cc(Br)cc(S(=O)(=O)N3CCCc4ccccc43)c21,inactive
18,Cn1c(=O)c2c(SCc3ccccc3F)nc(-c3cccs3)nc2n(C)c1=O,inconclusive: 20%
19,CC(C)c1ccc(-c2nc(N3CCCC3)nc3n[nH]c(N)c23)cc1,inconclusive: 12%
20,O=C(c1ccccc1)N1C[C@@H]2C[C@H](C1)c1ccc(NS(=O)(=O)c3cccc(F)c3)c(=O)n1C2,inconclusive: 21%
21,C=C(C)C1CCC2(C)OC(=O)N(Cc3ccccc3)C12C (stereo unspecified),inconclusive: 19%
22,COc1cccc(CN2CCCC(O)(CN3CCn4cccc4C3)C2=O)c1OC (stereo unspecified),inactive

# — PubChem BioAssay AID1259354 (Paczesny and Yang Labs, IUPUI and University of Michigan, 2018)
